Laboratory results: PubChem BioAssay AID743454 (Peter MacCallum Cancer Centre, 2014)

Purpose: 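Search for knock-downs that restore vorinostat killing in resistant colon cancer cells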 (primary screen)
Cell system: human HCT116-VR colon cancer cells, selected for vorinostat resistance
Reagents: siRNA pool against human genes, 40 nM siRNA pool
Timing: vorinostat for 24 h, read-out about 72 h after transfection
Treatment: vorinostat at 2.5 µM final
Detection: 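Two measures, CellTiter-Fluor viability and luminescent caspase 3/7 activity, each as fold change against same-plate mock wells, mean of duplicates, then screen-wide robust z-score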
Reading the numbers: viability robust z-score: higher = more viable cells than screen typical; caspase robust z-score: higher = more caspase 3/7 activity than screen typical
Hit rule: 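a knock-down is a hit when classed RV1 or RV2 for lowered viability, or CA1 or CA2 for caspase activation; those lethal without drug were dropped; hits were retested singly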
Shown is one part, drawn at random, of about 18,000 deposited reagents. 450 of them (2.5%) were called active. 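Single biological run; no consistent viability z cut-off exists, so the class columns, not z-scores, define the calls.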

target gene	PubChem SID	viability hit class	caspase hit class	viability robust z-score	caspase robust z-score	Outcome
GH2 (GeneID 2689)	SID134315990	no change	no change	0.62	-0.5	inactive
ZNF136 (GeneID 7695)	SID134311902	no change	no change	0.15	-0.3	inactive
TREX1 (GeneID 11277)	SID135622485	no change	no change	-0.4	0.06	inactive
KLC4 (GeneID 89953)	SID134319548	no change	no change	0.68	1.14	inactive
SLC16A12 (GeneID 387700)	SID152154220	no change	no change	0.45	0.78	inactive
SRRM3 (GeneID 222183)	SID152148660	no change	no change	1.06	0.36	inactive
CDK5RAP1 (GeneID 51654)	SID56479268	no change	no change	-1.46	3.2	inactive
POLR2H (GeneID 5437)	SID134316531	no change	no change	-0.78	2.75	inactive
SLC25A5 (GeneID 292)	SID135621384	no change	no change	0.84	-0.31	inactive
PCDHGA12 (GeneID 26025)	SID134315839	no change	no change	0.56	-0.24	inactive
ODAD3 (GeneID 115948)	SID152155650	no change	no change	1.21	-0.58	inactive
POPDC3 (GeneID 64208)	SID134321255	no change	no change	0.4	-0.92	inactive
ERCC6L (GeneID 54821)	SID152148516	no change	no change	-0.22	-0.24	inactive
LYPD6 (GeneID 130574)	SID152147053	no change	no change	0.62	-0.73	inactive
IL18R1 (GeneID 8809)	SID134312884	no change	no change	-0.46	-0.31	inactive
SUPT6H (GeneID 6830)	SID152148354	no change	no change	-2.37	-1.4	inactive
GJA9 (GeneID 81025)	SID152154764	no change	no change	1.14	-0.52	inactive
HBZ (GeneID 3050)	SID134316353	no change	no change	-0.1	-0.18	inactive
PALS2 (GeneID 51678)	SID134314403	no change	no change	0.82	-0.76	inactive

Next part (5 carried over from the part before).
target gene	PubChem SID	viability hit class	caspase hit class	viability robust z-score	caspase robust z-score	Outcome
IL18R1 (GeneID 8809)	SID134312884	no change	no change	-0.46	-0.31	inactive
SUPT6H (GeneID 6830)	SID152148354	no change	no change	-2.37	-1.4	inactive
GJA9 (GeneID 81025)	SID152154764	no change	no change	1.14	-0.52	inactive
HBZ (GeneID 3050)	SID134316353	no change	no change	-0.1	-0.18	inactive
PALS2 (GeneID 51678)	SID134314403	no change	no change	0.82	-0.76	inactive
PPP1R1B (GeneID 84152)	SID135622388	no change	no change	0.92	-0.57	inactive
NLRP2 (GeneID 55655)	SID152155303	no change	no change	1.25	0.6	inactive
CCT4 (GeneID 10575)	SID134323883	no change	no change	-2.23	2.41	inactive
SLC1A7 (GeneID 6512)	SID152149235	no change	no change	0.08	0.08	inactive
ADCY7 (GeneID 113)	SID134311977	no change	CA2 (caspase activation)	-0.07	5.14	active
FGFBP3 (GeneID 143282)	SID152147391	no change	no change	0.48	-1.16	inactive
ATP5MJ (GeneID 9556)	SID135623864	no change	no change	0.97	-0.9	inactive
BAG4 (GeneID 9530)	SID134310418	no change	no change	1.3	0.12	inactive
SCO2 (GeneID 9997)	SID152156165	no change	no change	0.8	-0.39	inactive
MYPN (GeneID 84665)	SID152154814	no change	no change	-0.68	-0.8	inactive
FDXR (GeneID 2232)	SID152154057	no change	no change	1.14	-0.23	inactive
RBBP6 (GeneID 5930)	SID134311873	no change	no change	1.52	0.88	inactive
OR52I2 (GeneID 143502)	SID152156449	no change	no change	0.34	-0.52	inactive
MAGEC2 (GeneID 51438)	SID134311955	no change	no change	0.3	0.29	inactive
CCT3 (GeneID 7203)	SID135623509	no change	no change	-1.78	2.09	inactive
MAGEB18 (GeneID 286514)	SID152153219	no change	no change	0.36	-1.01	inactive
LAMB1 (GeneID 3912)	SID134316034	no change	no change	0.86	0.5	inactive
TMEM216 (GeneID 51259)	SID135623290	no change	no change	-0.52	2.2	inactive
GSDMD (GeneID 79792)	SID135623106	no change	no change	0.1	-0.38	inactive
RUSC1-AS1 (GeneID 284618)	SID135623467	no change	no change	0.42	-0.48	inactive
